# Reference: patent publication US20160324818A1, “DIET FOOD COMPOSITION INCLUDING DHA TO REDUCE SHORT-TERM AND LONG-TERM LOW-GRADE INFLAMMATION” (PRI S.A., priority 2013, published 2016)
# At least one structure is not confirmed: it was looked up by name or label, or the drawing left a doubt.
# Assays:
# Type in all cases: in vivo, human (obese patients, average BMI=33)
# 14-HDoHE = assay: Slimming study: blood level of anti-inflammatory marker 14-HDoHE; conditions: end of 30 days, p<0.00095
# [1] = test system: pro-inflammatory and anti-inflammatory markers; assay: Slimming study: overall pro-inflammatory and anti-inflammatory markers between D-0 and D-180; conditions: after 6 months of slimming diet (FIG. 7)
# leptin = assay: Slimming study: blood leptin level; conditions: on average, p<0.001 at 60 days; control group reduced to a third
# [2] = Slimming study under medical supervision: weight loss and waistline; conditions: versus control group without DHA (FIGS. 1 and 2)
# Protocol: A study under medical supervision was conducted among obese patients (average BMI=33). The subjects were separated into two groups: • a “control” group consuming food compositions similar to those of the invention but without DHA; and • a “study” group consuming food compositions according to the invention comprising DHA.
# For the first 60 days of the study, the patients in the study group each received 500 mg of DHA per day solely through the consumption of food compositions and portions according to the invention. Their calorie intake was below 800 kcals per day and was presented chiefly in the form of food compositions or portions according to the invention. To be more precise, the patients consumed five food portions according to the invention during the day, two of them during the main meals where the portions were accompanied by vegetables in order to ensure their DHA intake especially. […] The goal was to re-educate the patient in terms of food intake. Traditional foods were gradually re-introduced into the patient's daily food intake in order to avoid deficiency and fatigue as well as to re-educate him or her on the food intake level.
# The progress of the waistline measurements in the two groups of patients is shown in the graph of FIG. 2. The waistline measurement makes it possible to evaluate loss of abdominal fat, a parameter associated with the metabolic syndrome. […]
# ARA/DHA ratio = assay: Slimming study: ARA/DHA ratio; conditions: from first thirty days of slimming (FIG. 8)
# [3] = test system: anti-inflammatory fatty acids; assay: Slimming study: anti-inflammatory fatty acid index (AIFAI)
structure (smiles),measurement,setting,value
"CC/C=C\C/C=C\C/C=C\C/C=C\C/C=C\C/C=C\CCC(=O)O [DHA, docosahexaenoic acid]",14-HDOHE level versus control group,14-HDoHE,significantly higher
same,level of anti-inflammatory molecules versus control group,[1],about four times higher
same,quantity of inflammation markers versus control group,[1],reduced
same,leptin level reduction,leptin,reduced to one-fifth
same,effect on total weight loss,[2],does not modify the total weight loss
same,"diminishing of ARA/DHA ratio compared with initial ratio, versus control group",ARA/DHA ratio,far greater and marked
same,AIFAI,[3]; first month of dieting (FIG. 9),zero and slightly positive
same,AIFAI versus control group,"[3]; later in the diet, up to D-180 (FIG. 9)",more than twelve times greater
